Assay results taken from article PMC4317163.
No constants are given. Whether binding was seen depends on the method and setting. Some binding calls cover weakened binding; strength is not graded here. Sequences can lack the tags named with a protein.

B1: ZIPIC fragment 3–167aa fused to the GAL4 activating domain (domain or fragment, UniProt Q9VAB8 3-167)
chain: CCICQFSVRVPKDIHTDTVGHPPVLISELVLQCTRGTNYVLTEESSTICKKCCEKLARYHKSIQIARKLRGEILELIHSPYMSKDHKQTSYKEDDLDRETTISKFDGNIEEAQQQDEEEQELESVGTTVTLVGPAGIVEEVAEEEHTFIIKQSEEEDEFHSVDLE
B2: Pita fused to the GAL4 activating domain (protein, UniProt Q95RQ8 1-683)
chain: MAAKLEVREAMLTEKRVCRFCLTEQKLASIFEENPRVKTTANLPLQIMAITAIEVYAGDGMPGHICLECRLLFEHCYRFKQMCKRAETLLRQYPLTGNWPSPLEKPRAPMTMVASKKLLVVPAKTAEPSETPKKLLNTMAKSSSQVIIEDVQVLESAMVTPRTVAGSSPVPRRSHAYELKVDNNQELSMDDVQSMLEDMASELEKEFPDIPQKASPVKPKVLNKSSIRILNKGPAAPVEPRLATPKVKRDDSGNVAIVTEVLDSDLPLDDQDDPTKNAEKVATDVFPCPDCERSFPLQQLLEIHRLNHTRSRSFQCLLCEKSFFSKYDLAKHNFVHTGERPFKCAICSKAFTRKALLHRHERTHTDVPKFICVYCEKPFLSRQEMEKHAERHQKKRPFQCGVCTKSFAFKQGLERHETVHSTNLPFPCQHCERSFSTASKLARHLVAHAGKRAYPCKYCHKSYMLSHHLSRHLRTHTQTSDASFVCSECKVSYSNYNDLLDHALIHATASLKCPMCRKQIEDIDSVESHMDQHKQSERHACEFCDHIFLTQKCLQRHIEDDHVVEMEPYQNEFEDDGEGEGGVDEKEEHLDDFEDMDNVKQEEFVTEYLEDDALYEDHLDDSDESFTPPPPKQRKTNPPKDAQQSVRQTRSRDAQRITQKTGKNEGKPHHKLERNLKNRRSAK
B3: dCTCF (yeast two-hybrid) (protein, UniProt Q9VS55 1-818)
chain: MPRRTKKDEDPEDLQTFLNNFHKEIEGNSDEKVVNTILEAISAEAIDLDENGAEAGGSKPMEEAEADLDHAEEAEEEEEDDEDKYFIDDEGNCYIKTTPKKQKELQKKLKQAAAKPGKATRSVVSTATNKSINLRPAKSTPKATTSKPPPEPKAISVRPARAAAAKAKQSAMPPPPALVVKVPAPRGRPRKNPVIPKPEPMDLERELEELVDEPDISSMVTELSDYTVDEAAVEAATATLTPNEAEVYEFEDNATTEDENADKKDVDFVLSNKEVKLKTASSTSQNSNASGHKYSCPHCPYTASKKFLITRHSRSHDVEPSFKCSICERSFRSNVGLQNHINTHMGNKPHKCKLCESAFTTSGELVRHTRYKHTKEKPHKCTECTYASVELTKLRRHMTCHTGERPYQCPHCTYASQDMFKLKRHMVIHTGEKKYQCDICKSRFTQSNSLKAHKLIHSVVDKPVFQCNYCPTTCGRKADLRVHIKHMHTSDVPMTCRRCGQQLPDRYQYKLHVKSHEGEKCYSCKLCSYASVTQRHLASHMLIHLDEKPFHCDQCPQAFRQRQLLRRHMNLVHNEEYQPPEPREKLHKCPSCPREFTHKGNLMRHMETHDDSANAREKRRRLKLGRNVRLQKDGTVITLIKDQYVDMDRDQEENEEDDNPESYDLAEIEPENSEAEDADDDVETIVSDPIRQRIKPAPIIINKQARLAASEKQPMIINQRLRSQRGTKTFHIKEEPDNSDFTVEWQGDDGEVMVVELVNGDEEVLVKHEPSANSKISAKNCFGFEDDDDYEEYGDGENEVDGASQEFLQLMDMIEQDS
B4: ZIPIC fragment 162–274aa fused to the GAL4 activating domain (domain or fragment, UniProt Q9VAB8 162-274)
chain: HSVDLELDIDNEIIINEEEAHEVEEVAHEIEEVAHEIEEEDLLPHDKQEAQEEDFFKEDTMSDFDEHLDGAIEYIISDGEDQEQDNESSGEYTVNIQCPSCPEKFSSRRAYNV
B5: ZIPIC fused to the GAL4 activating domain (protein, UniProt Q9VAB8 1-457)
chain: MNCCICQFSVRVPKDIHTDTVGHPPVLISELVLQCTRGTNYVLTEESSTICKKCCEKLARYHKSIQIARKLRGEILELIHSPYMSKDHKQTSYKEDDLDRETTISKFDGNIEEAQQQDEEEQELESVGTTVTLVGPAGIVEEVAEEEHTFIIKQSEEEDEFHSVDLELDIDNEIIINEEEAHEVEEVAHEIEEVAHEIEEEDLLPHDKQEAQEEDFFKEDTMSDFDEHLDGAIEYIISDGEDQEQDNESSGEYTVNIQCPSCPEKFSSRRAYNVHTKREHFPGYVCDQCGKTLQSYSGFIGHLQNHEPVKQFACPVCPERFSRKFRLKHHMAWHSGETPYQCDVCSKRFVHKVALYKHKMIHDSETKRLECQVCGFKTRTKAHLERHMRSHTGDKPFACPVCNKRFSQMYNMKAHLREHESPGTNRHRRFHCSKCTHTFINEQNYDAHVQRDDCTPV

target: T1, CP190 fused to the GAL4 DNA-binding domain (Drosophila) (UniProt Q24478); experiment: two-hybrid; yeast strain pJ69-4A, Clontech plasmids; CP190 or its fragments fused to the GAL4 DNA-binding domain, Pita/ZIPIC or their fragments fused to the GAL4 activating domain; growth on media without tryptophan, leucine, histidine and adenine, 30°C
T1 sequence: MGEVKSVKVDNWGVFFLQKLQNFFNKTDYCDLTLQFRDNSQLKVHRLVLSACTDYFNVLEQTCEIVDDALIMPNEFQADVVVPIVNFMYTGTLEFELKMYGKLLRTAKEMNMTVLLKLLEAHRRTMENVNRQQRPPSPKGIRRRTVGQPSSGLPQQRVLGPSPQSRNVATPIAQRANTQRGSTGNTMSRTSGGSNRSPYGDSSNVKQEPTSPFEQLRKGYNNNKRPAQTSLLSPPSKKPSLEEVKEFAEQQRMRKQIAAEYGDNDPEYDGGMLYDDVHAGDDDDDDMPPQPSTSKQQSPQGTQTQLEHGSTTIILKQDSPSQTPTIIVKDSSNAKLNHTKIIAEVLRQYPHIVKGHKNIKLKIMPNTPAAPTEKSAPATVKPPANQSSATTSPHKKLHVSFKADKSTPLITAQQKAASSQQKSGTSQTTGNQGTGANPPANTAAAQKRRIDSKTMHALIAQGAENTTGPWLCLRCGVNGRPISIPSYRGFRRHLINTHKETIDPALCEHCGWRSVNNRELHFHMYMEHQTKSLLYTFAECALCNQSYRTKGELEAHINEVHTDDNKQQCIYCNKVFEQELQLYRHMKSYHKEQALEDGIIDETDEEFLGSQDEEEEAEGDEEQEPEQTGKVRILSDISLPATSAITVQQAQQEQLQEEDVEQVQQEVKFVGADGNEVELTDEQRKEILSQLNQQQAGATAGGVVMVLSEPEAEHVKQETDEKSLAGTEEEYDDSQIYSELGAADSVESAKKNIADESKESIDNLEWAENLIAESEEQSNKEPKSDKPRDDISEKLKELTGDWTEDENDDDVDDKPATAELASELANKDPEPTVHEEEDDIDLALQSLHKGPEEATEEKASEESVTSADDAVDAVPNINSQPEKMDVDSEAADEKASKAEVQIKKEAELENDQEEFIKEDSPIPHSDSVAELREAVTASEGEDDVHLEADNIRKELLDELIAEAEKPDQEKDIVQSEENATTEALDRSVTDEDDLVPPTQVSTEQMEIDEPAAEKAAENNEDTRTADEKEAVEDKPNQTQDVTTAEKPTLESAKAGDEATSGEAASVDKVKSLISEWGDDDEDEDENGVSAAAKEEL

binding, binds:
B1, B2, B3, B4, B5
